# Measured values from article PMC12747536.
# Amino acid sequences for entries named in this document (tags omitted).
# UniProt O15042: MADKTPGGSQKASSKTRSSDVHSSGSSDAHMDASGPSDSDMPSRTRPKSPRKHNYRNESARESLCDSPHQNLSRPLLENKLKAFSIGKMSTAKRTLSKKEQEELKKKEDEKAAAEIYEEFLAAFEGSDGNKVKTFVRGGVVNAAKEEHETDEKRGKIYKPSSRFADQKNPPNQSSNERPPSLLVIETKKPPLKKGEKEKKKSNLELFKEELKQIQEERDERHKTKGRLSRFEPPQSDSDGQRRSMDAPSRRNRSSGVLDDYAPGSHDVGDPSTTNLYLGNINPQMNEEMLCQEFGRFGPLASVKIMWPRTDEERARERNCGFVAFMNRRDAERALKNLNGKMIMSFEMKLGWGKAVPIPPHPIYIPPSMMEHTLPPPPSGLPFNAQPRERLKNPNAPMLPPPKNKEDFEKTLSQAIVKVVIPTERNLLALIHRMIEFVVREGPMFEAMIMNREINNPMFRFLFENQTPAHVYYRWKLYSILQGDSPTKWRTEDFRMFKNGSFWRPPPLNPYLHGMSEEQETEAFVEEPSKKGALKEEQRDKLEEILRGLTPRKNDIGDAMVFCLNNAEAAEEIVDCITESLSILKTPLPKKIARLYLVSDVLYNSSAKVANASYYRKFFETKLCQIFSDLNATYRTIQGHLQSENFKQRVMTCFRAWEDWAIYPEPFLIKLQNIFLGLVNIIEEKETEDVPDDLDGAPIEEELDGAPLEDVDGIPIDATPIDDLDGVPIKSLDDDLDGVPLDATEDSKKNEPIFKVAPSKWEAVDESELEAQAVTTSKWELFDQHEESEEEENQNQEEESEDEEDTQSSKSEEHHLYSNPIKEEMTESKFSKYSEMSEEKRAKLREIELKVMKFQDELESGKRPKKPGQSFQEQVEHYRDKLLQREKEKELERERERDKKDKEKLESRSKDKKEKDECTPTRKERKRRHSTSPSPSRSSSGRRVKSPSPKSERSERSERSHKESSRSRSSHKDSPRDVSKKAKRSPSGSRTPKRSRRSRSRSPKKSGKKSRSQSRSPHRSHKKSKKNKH
# UniProt Q8WXF0: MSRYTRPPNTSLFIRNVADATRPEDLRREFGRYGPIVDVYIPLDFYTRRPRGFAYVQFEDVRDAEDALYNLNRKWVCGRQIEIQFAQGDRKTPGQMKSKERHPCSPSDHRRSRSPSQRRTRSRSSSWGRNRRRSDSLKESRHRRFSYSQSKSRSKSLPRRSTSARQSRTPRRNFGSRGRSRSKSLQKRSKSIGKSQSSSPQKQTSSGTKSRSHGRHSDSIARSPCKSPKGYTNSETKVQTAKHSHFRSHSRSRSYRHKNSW
# Results are given in words; binding and its absence hold for the method and conditions named. Binding seen in cells or lysates may run through a third protein. Some binding calls cover weakened binding; strength is not graded here. Sequences can lack the tags named with a protein.
# Biological target: T1, GFP-tagged C9ORF50 (pCMV-C9ORF50-GFP) (not stated (human or mouse cDNA cloned)) (UniProt Q5SZB4)
# T1 sequence: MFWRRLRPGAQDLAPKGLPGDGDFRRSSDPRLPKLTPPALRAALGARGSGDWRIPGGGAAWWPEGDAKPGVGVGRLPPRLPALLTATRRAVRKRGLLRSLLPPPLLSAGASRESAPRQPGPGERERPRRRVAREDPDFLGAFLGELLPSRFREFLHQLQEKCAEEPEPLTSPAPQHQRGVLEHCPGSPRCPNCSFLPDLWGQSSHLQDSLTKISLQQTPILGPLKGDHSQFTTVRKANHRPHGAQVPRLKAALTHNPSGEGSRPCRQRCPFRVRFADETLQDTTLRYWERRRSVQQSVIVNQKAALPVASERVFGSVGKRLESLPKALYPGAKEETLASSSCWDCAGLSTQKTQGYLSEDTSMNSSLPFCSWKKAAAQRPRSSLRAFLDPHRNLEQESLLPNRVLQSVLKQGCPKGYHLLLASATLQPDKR
# Test: co-IP; HEK293T cells transfected with pCMV-C9ORF50-GFP or pCMV-GFP; RIPA lysate (2 mg protein) immunoprecipitated with 10 ug rabbit anti-GFP antibody (Pierce Classic Magnetic IP/Co-IP kit); immunoblot with anti-U2SURP and anti-SRSF12
row,Substance,binding
1,U2SURP (from UniProt O15042 1-1029),binds
2,SRSF12 (from UniProt Q8WXF0 1-261),binds
